PubChem BioAssay AID504764, Drosophila RNAi Screening Center | 2011
The deposit covers about 22,000 reagents; shown is an unselected part of those with a known target gene and a result. Of all reagents, 403 (1.9%) were called active. 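Unnormalised raw counts per well; ratio z-scores behind the hit calls and whether each hit raises or lowers signal are not deposited.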 Not stated in the record: the amount of reagent.

- Purpose: 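Knock-downs that raise or lower a Notch target reporter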 (primary screen)
- Cells: Drosophila Kc167 cells
- Reagents: long dsRNA against Drosophila genes
- Duration: about 5 days (4 days dsRNA, then 24 h after transfection)
- Conditions: transfection of constitutively active membrane-tethered Notch lacking the extracellular domain, read 24 h later
- Measured: 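Light from a Notch-responsive E(spl)m3 luciferase reporter under active Notch, with control-promoter and no-Notch reporter wells to normalise; raw counts from paired wells a and b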
- Reading the numbers: induced reporter light, run 1, well a and induced reporter light, run 1, well b: higher = more light from the Notch target reporter with active Notch; control promoter light, run 1, well a and control promoter light, run 1, well b: higher = more light from the viral control promoter (cell number, transfection, viability); uninduced reporter light, run 1, well a: higher = more light from the Notch target reporter without active Notch
- Hit rule: 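Wells with low control signal or poorly matching duplicates excluded; duplicates averaged; per source plate, z beyond ±2 for induced/control log2 ratio or beyond ±1.8 for induced/uninduced marks a hit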
- Meaning of the calls: active = modifier hit (raised or lowered Notch signal); inactive = not a hit

no.	gene	dsRNA	induced reporter light, run 1, well a	induced reporter light, run 1, well b	control promoter light, run 1, well a	control promoter light, run 1, well b	uninduced reporter light, run 1, well a	Call
1	CG1965	DRSC12577	2.13e5	1.74e5	1.33e5	1.40e5	10800	inactive
2	CG3552	DRSC10370	1.43e5	1.18e5	2.41e5	1.30e5	8280	inactive
3	CG16762	DRSC08493	1.05e5	1.06e5	1.49e5	1.69e5	8575	inactive
4	mRpL32	DRSC14479	2.08e5	1.73e5	2.17e5	2.10e5	16720	inactive
5	MICAL-like	DRSC09829	1.35e5	1.38e5	85175	78260	13415	inactive
6	CG12289	DRSC09874	1.45e5	93870	1.20e5	1.35e5	13105	inactive
7	mRpL42	DRSC06235	1.73e5	1.57e5	2.03e5	1.85e5	12920	inactive
8	t-cup	DRSC01254	1.39e5	1.24e5	1.70e5	1.43e5	11700	inactive
9	wds	DRSC18852	93315	1.04e5	1.08e5	1.14e5	7375	inactive
10	CG5877	DRSC19963	2.79e5	2.00e5	2.45e5	2.53e5	17015	inactive
11	daed	DRSC00299	1.32e5	1.50e5	1.57e5	1.82e5	18020	active
12	LanB2	DRSC11208	87420	1.02e5	65805	35275	10478	inactive
13	Ravus	DRSC15126	1.80e5	1.75e5	1.51e5	1.46e5	17555	inactive
14	CG15429	DRSC00444	2.47e5	1.88e5	3.17e5	2.64e5	11428	inactive
15	Mvd	DRSC20096	1.73e5	2.12e5	2.47e5	2.33e5	16380	inactive
16	eloF	DRSC15162	1.24e5	1.03e5	1.13e5	80205	5620	inactive
17	CG13405	DRSC08310	95285	87655	1.37e5	1.68e5	5860	inactive
18	CR31292	DRSC13120	1.41e5	1.51e5	1.60e5	1.88e5	10325	inactive
19	Vha68-3	DRSC02809	1.48e5	1.73e5	1.86e5	1.70e5	16045	inactive
20	t-Grip84	DRSC10904	2.19e5	1.63e5	2.56e5	1.71e5	11965	inactive
21	CG13323	DRSC06360	1.38e5	1.25e5	1.32e5	1.11e5	13355	active
22	Iru	DRSC14457	1.23e5	1.20e5	81975	62555	10105	inactive
23	Obp18a	DRSC19736	94150	92420	97240	1.32e5	11705	inactive
24	CG8209	DRSC10970	2.70e5	2.46e5	3.89e5	2.36e5	15300	inactive
25	Plekhm1	DRSC04527	40285	33995	40530	43255	1735	inactive
26	Pex23	DRSC10323	1.30e5	1.66e5	74510	82655	11950	inactive
27	Pex23	DRSC10645	1.01e5	1.06e5	1.19e5	1.03e5	8265	inactive
28	eIF4A	DRSC03526	3655	3315	5995	5635	255	inactive
29	CG11999	DRSC12185	88685	1.21e5	1.18e5	79685	5905	inactive
30	par-1	DRSC05792	75055	86560	1.36e5	1.24e5	7640	inactive
31	par-1	DRSC06098	36420	32555	35035	34880	3140	inactive
32	par-1	DRSC06616	1.47e5	1.31e5	2.76e5	2.80e5	12090	inactive
33	par-1	DRSC07660	22920	19635	16590	25660	2485	inactive
34	par-1	DRSC07661	1.41e5	99000	1.48e5	1.22e5	10085	inactive
35	dlp	DRSC10281	14030	17575	7488	8685	3880	inactive
36	dlp	DRSC10472	89660	91820	1.02e5	83095	7335	inactive
37	row	DRSC07076	55175	80395	1.28e5	2.46e5	8145	active
38	row	DRSC07077	1.06e5	1.06e5	1.63e5	1.24e5	7705	inactive
39	Mps1	DRSC16273	1.25e5	1.10e5	90335	94865	10150	active
40	Pi3K68D	DRSC11253	1.10e5	1.01e5	93720	39395	9200	inactive
41	spaw	DRSC06824	2.38e5	2.61e5	1.67e5	1.82e5	18938	active
42	CG30183	DRSC04450	1.64e5	1.41e5	1.64e5	1.71e5	12450	inactive
43	CG30183	DRSC04472	1.72e5	1.53e5	1.52e5	1.32e5	11845	inactive
44	CG8192	DRSC07101	54355	65280	83865	84200	7965	inactive
45	CG6179	DRSC19973	1.28e5	1.30e5	1.40e5	1.74e5	15150	inactive
46	hppy	DRSC07014	93760	93325	93535	1.23e5	7830	inactive
47	hppy	DRSC07015	63430	86595	89950	76190	6460	inactive
48	hppy	DRSC07016	68050	80570	1.10e5	1.04e5	5985	inactive
49	CG14431	DRSC17925	1.25e5	1.23e5	2.31e5	2.11e5	8500	inactive
50	Mipp1	DRSC11223	1.29e5	1.18e5	80500	1.15e5	9390	inactive
